Measurements from PubChem BioAssay AID248 (DTP/NCI, 2004).
The list shows only some results of the screen, not a fair sample: it gathers tests that were run many times, whatever their T/C, doses with no T/C, and many T/C values between a quarter and a half above the control. Further doses and runs are listed elsewhere. T/C is the treated group as % of the vehicle group. Some entries give survivors of the animals treated and no T/C: the source files T/C as zero there, which appears to mark a toxic dose or a test without result, not a measured value. Some survivor counts are full or nearly so, which does not show that the dose was tolerated: the source hardly ever lists a survival T/C far under the control, and the zero likely stands for such cases as well. Survivors were counted at the toxicity check, usually on the fifth day, unless a day is given; later deaths do not show. Schedule codes are those of the source, taken here to give the interval after Q, in days (D) or hours (H), and the number of doses after X. Brackets with × give the number of equal values in this list. Some doses were run more than once; the results are listed from low to high. For survival time, the PubChem record calls one and a half times the control and up active, and a quarter to a half above the control has no call in these data; cut-offs in other NCI protocols can differ. Some T/C values are followed by the survivors on the day toxicity was checked, most often the fifth; without a count, all were alive then. Some schedules carry Z or #; the key to these is not given.

Tested on: L1210 leukemia ip in BDF1 mice, survival T/C
Assay: NCI In Vivo Anticancer Drug Screen. Data for tumor model L1210 Leukemia (intraperitoneal) in B6D2F1 (BDF1) mice
Details: T/C endpoint: mean survival time, higher T/C = longer survival

For `COc1cccc2c1C(=O)c1c(O)c3c(c(O)c1C2=O)C[C@@](O)(C(=O)CO)C[C@@H]3OC1CC(N)C(O)C(C)O1` (some centres undefined), the survivor count (dose: 2.0 mg/kg/injection, schedule: Q03HX024 (ip), vehicle: water) was 8 of 8, the T/C (dose: 2.0 mg/kg/injection, schedule: Q## X Z (ip), vehicle: water) was 138 % of control and the T/C (dose: 2.1 mg/kg/injection, schedule: Q04DX002 (ip), vehicle: saline) was 121, 124, 133, 144 % of control. The T/C (dose: 2.2 mg/kg/injection, schedule: Q02DX008 (ip), vehicle: clinical formulation) was 137 % of control, the T/C (dose: 2.2 mg/kg/injection, schedule: Q04DX004 (ip), vehicle: clinical formulation) was 128 % of control and the T/C (dose: 2.25 mg/kg/injection, schedule: Q01DX015 (ip), vehicle: clinical formulation) was 145 % of control. The T/C (dose: 2.5 mg/kg/injection, schedule: Q04DX003 (ip), vehicle: water) was 146 % of control, the T/C (dose: 2.59 mg/kg/injection, schedule: Q01DX001 (ip), vehicle: saline) was 147 % of control and the T/C (dose: 2.7 mg/kg/injection, schedule: Q01DX004 (ip), vehicle: saline) was 130 % of control. The T/C (dose: 2.7 mg/kg/injection, schedule: Q01DX009 (ip), vehicle: saline) was 120, 151, 172, 183 % of control, the T/C (dose: 2.88 mg/kg/injection, schedule: Q04DX003 (ip), vehicle: saline) was 139 % of control and the T/C (dose: 3.0 mg/kg/injection, schedule: Q01DX001 (ip), vehicle: saline, evaluated on day 5) was 142 % of control. For the same molecule, the T/C (dose: 3.0 mg/kg/injection, schedule: Q01DX001 (ip), vehicle: saline, evaluated on day 60) was 142 % of control, the T/C (dose: 3.0 mg/kg/injection, schedule: Q01DX001 (sc), vehicle: saline, evaluated on day 5) was 94 and 115 % of control and the T/C (dose: 3.0 mg/kg/injection, schedule: Q01DX001 (sc), vehicle: saline, evaluated on day 45) was 94 and 115 % of control. The T/C (dose: 3.0 mg/kg/injection, schedule: Q01DX004 (ip), vehicle: saline) was 148 % of control, the T/C (dose: 3.0 mg/kg/injection, schedule: Q03HX008 (ip), vehicle: saline, evaluated on day 5) was 61 and 94 % of control and the T/C (dose: 3.0 mg/kg/injection, schedule: Q03HX008 (ip), vehicle: saline, evaluated on day 60) was 94 % of control. The survivor count (dose: 3.0 mg/kg/injection, schedule: Q03HX008 (ip), vehicle: saline) was 5 of 10, the T/C (dose: 3.3 mg/kg/injection, schedule: Q02DX008 (ip), vehicle: clinical formulation) was 141 % of control and the T/C (dose: 4.0 mg/kg/injection, schedule: Q01DX001 (ip), vehicle: saline) was 142 % of control. For the same molecule, the T/C (dose: 4.0 mg/kg/injection, schedule: Q01DX004 (ip), vehicle: clinical formulation) was 125 % of control, the T/C (dose: 4.0 mg/kg/injection, schedule: Q01DX004 (ip), vehicle: saline, evaluated on day 30) was 86 % of control and the T/C (dose: 4.0 mg/kg/injection, schedule: Q01DX004 (ip), vehicle: saline, evaluated on day 60) was 100 (2×) and 113 % of control. For the same molecule, the survivor count (dose: 4.0 mg/kg/injection, schedule: Q01DX004 (ip), vehicle: saline) was 6 of 6, the T/C (dose: 4.0 mg/kg/injection, schedule: Q01DX007 (ip), vehicle: water) was 140 % of control and the survivor count (dose: 4.0 mg/kg/injection, schedule: Q03HX008 (ip), vehicle: water) was 3 of 8 and 8 of 8. For the same molecule, the T/C (dose: 4.0 mg/kg/injection, schedule: Q## X Z (ip), vehicle: water) was 126 % of control, the T/C (dose: 4.2 mg/kg/injection, schedule: Q04DX002 (ip), vehicle: saline) was 117, 126, 138, 175 % of control and the T/C (dose: 4.4 mg/kg/injection, schedule: Q01DX001 (ip), vehicle: clinical formulation) was 139 % of control. The T/C (dose: 4.8 mg/kg/injection, schedule: Q04DX003 (ip), vehicle: saline) was 144 % of control, the T/C (dose: 5.0 mg/kg/injection, schedule: Q04DX004 (ip), vehicle: clinical formulation) was 139 % of control and the T/C (dose: 6.0 mg/kg/injection, schedule: Q01DX001 (sc), vehicle: saline, evaluated on day 5) was 102 and 122 % of control. The T/C (dose: 6.0 mg/kg/injection, schedule: Q01DX001 (sc), vehicle: saline, evaluated on day 45) was 102 and 122 % of control, the survivor count (dose: 6.0 mg/kg/injection, schedule: Q01DX004 (ip), vehicle: saline) was 10 of 10, 6 of 6, 8 of 8 (2×) and the T/C (dose: 6.7 mg/kg/injection, schedule: Q01DX001 (ip), vehicle: clinical formulation) was 140 % of control. For the same molecule, the T/C (dose: 7.5 mg/kg/injection, schedule: Q01DX001 (sc), vehicle: saline, evaluated on day 5) was 115 and 122 % of control, the T/C (dose: 7.5 mg/kg/injection, schedule: Q01DX001 (sc), vehicle: saline, evaluated on day 60) was 115 and 122 % of control and the T/C (dose: 7.5 mg/kg/injection, schedule: Q04DX004 (ip), vehicle: clinical formulation) was 140 % of control. The survivor count (dose: 8.0 mg/kg/injection, schedule: Q01DX004 (ip), vehicle: saline) was 8 of 8 (2×), the survivor count (dose: 8.0 mg/kg/injection, schedule: Q01DX008 (ip), vehicle: saline) was 7 of 8 and the T/C (dose: 8.0 mg/kg/injection, schedule: Q04DX003 (ip), vehicle: saline) was 139 % of control. For the same molecule, the survivor count (dose: 8.0 mg/kg/injection, schedule: Q06HX004 (ip), vehicle: water) was 7 of 8, the T/C (dose: 10.0 mg/kg/injection, schedule: Q01DX001 (sc), vehicle: saline, evaluated on day 5) was 114 and 128 % of control and the T/C (dose: 10.0 mg/kg/injection, schedule: Q01DX001 (sc), vehicle: saline, evaluated on day 60) was 114 and 128 % of control. The T/C (dose: 10.0 mg/kg/injection, schedule: Q04DX003 (ip), vehicle: water) was 129 % of control, the T/C (dose: 12.0 mg/kg/injection, schedule: Q01DX001 (sc), vehicle: saline, evaluated on day 5) was 113 and 125 % of control and the T/C (dose: 12.0 mg/kg/injection, schedule: Q01DX001 (sc), vehicle: saline, evaluated on day 45) was 113 and 125 % of control [9 of 10 alive]. For the same molecule, the T/C (dose: 12.5 mg/kg/injection, schedule: Q01DX001 (sc), vehicle: saline, evaluated on day 5) was 138 and 162 % of control, the T/C (dose: 12.5 mg/kg/injection, schedule: Q01DX001 (sc), vehicle: saline, evaluated on day 60) was 138 and 162 % of control and the T/C (dose: 15.0 mg/kg/injection, schedule: Q01DX001 (sc), vehicle: saline, evaluated on day 5) was 124 and 131 % of control. For the same molecule, the T/C (dose: 15.0 mg/kg/injection, schedule: Q01DX001 (sc), vehicle: saline, evaluated on day 60) was 124 and 131 % of control, the survivor count (dose: 20.0 mg/kg/injection, schedule: Q01DX001 (ip), vehicle: saline) was 8 of 10 and the survivor count (dose: 40.0 mg/kg/injection, schedule: Q01DX001 (ip), vehicle: saline) was 4 of 10.
